The values below come from paper PMC2367452.

Sequences of proteins named here, by UniProt entry; tags and fusion partners are left off. Residues count along the entry.
UniProt Q62424, 320-386: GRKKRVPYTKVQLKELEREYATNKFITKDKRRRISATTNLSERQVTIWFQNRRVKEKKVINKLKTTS

This series addresses HOXA13 DNA-binding domain peptide (A13-DBD) (UniProt Q62424). Put plainly: EMSA. Particulars: concentration-dependent; EMSA: Promega Gel Shift Binding System; recombinant protein; label: 32P; probe letters rebuilt from the primers and the genome. (In general: Mobility shift assays separate free from complexed probe on a gel.)

Construct, isoform or probe ends are uncertain for at least one entry.

In the case of “CGCGGGCTTCTCTACTCTTATTATTAAAGGATCCCCCGGAACGTGTTTACGTTGAGCCTTGTAAACTTCCTGCCCCGGACTTTGCCATCTCTCAGGAAATCAGAACCTGCGCTTGTAAAAGG (double strand) [Foxf1 ChIP-positive PCR amplicon]”, the binding result was “binds”.

On to “CTAATCCCAGCCCTGCTGTAACCATTCCCAAGTTATCCTGTTTCTTCATTTTTTTTATTAAATTATTTTATTTATTTAATTACAAATGTTGCCCTCCTTCCCCGTCCCTGCTCCCAGAGTTTGTTATCCACTCCCCTTCCC (double strand) [Tie2 ChIP-positive PCR amplicon]”, for which the binding result is “binds”.
